The results in this text go back to paper PMC11648228.

These are yes or no findings as the source states them, for the method shown. In cells and extracts the contact can be indirect. Some binding calls cover weakened binding; strength is not graded here. Where a sequence is shown, tags or fusion partners need not be part of it.

Common to all, as to test: co-IP; SPRED1/Spred1 constructs co-expressed with HA-zDHHC24 in cells (HEK293T); lysates precipitated with anti-FLAG antibody and TrueBlot anti-mouse Ig beads, anti-GFP-agarose or anti-Myc-agarose for 2 h at 4 °C; washed with 50 mM Tris-HCl pH 8.0, 150 mM NaCl, 1% Nonidet P-40; Western blot
A general note: Immunoblotting shows a protein as a band on a membrane.

Test [1] deals with T1, murine Spred1, Myc-tagged, wild type (murine) (UniProt Q924S8).
T1 sequence: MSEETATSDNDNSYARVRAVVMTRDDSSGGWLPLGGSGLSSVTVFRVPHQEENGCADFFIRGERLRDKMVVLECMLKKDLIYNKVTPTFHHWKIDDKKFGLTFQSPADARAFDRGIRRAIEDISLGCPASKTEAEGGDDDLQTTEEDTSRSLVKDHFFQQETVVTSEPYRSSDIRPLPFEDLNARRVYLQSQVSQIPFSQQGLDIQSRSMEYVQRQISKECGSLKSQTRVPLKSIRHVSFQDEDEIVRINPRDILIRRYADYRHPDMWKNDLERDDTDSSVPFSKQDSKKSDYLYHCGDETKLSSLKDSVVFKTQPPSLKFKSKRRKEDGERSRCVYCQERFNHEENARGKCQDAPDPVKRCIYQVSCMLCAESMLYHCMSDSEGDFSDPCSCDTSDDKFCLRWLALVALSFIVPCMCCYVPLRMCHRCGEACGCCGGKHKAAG

Test [2] addresses T2, murine Spred1 C419* (C-terminal 26 amino acid deletion), Myc-tagged (murine) (UniProt Q924S8).
T2 sequence: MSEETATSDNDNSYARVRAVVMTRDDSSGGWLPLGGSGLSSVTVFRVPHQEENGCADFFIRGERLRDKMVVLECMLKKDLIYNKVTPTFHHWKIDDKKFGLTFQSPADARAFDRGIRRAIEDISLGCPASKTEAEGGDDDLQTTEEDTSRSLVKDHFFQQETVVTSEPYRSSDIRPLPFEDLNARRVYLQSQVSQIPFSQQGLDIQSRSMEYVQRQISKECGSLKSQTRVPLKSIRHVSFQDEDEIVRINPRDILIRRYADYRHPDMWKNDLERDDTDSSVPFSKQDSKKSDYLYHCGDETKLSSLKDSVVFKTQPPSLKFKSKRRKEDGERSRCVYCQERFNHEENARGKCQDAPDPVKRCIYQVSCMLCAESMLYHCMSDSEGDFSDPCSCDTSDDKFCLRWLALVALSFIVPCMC

Test [3] concerns the target T3, murine Spred1 S388* (C-terminal 56 amino acid deletion), Myc-tagged (murine) (UniProt Q924S8).
T3 sequence: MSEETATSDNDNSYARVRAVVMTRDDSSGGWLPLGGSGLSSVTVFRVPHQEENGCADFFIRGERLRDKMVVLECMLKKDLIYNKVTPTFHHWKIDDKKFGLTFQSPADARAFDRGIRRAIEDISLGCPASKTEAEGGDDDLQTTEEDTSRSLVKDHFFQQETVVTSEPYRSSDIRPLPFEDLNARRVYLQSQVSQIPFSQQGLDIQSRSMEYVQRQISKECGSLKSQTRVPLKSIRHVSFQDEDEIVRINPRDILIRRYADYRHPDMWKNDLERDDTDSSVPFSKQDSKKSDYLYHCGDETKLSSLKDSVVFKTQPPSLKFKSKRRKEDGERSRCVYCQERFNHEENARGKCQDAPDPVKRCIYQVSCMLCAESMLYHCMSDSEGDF

The target of test [4] is T4, human SPRED1 (Sprouty-related protein with an EVH1 domain-1), wild type (human) (UniProt Q7Z699).
T4 sequence: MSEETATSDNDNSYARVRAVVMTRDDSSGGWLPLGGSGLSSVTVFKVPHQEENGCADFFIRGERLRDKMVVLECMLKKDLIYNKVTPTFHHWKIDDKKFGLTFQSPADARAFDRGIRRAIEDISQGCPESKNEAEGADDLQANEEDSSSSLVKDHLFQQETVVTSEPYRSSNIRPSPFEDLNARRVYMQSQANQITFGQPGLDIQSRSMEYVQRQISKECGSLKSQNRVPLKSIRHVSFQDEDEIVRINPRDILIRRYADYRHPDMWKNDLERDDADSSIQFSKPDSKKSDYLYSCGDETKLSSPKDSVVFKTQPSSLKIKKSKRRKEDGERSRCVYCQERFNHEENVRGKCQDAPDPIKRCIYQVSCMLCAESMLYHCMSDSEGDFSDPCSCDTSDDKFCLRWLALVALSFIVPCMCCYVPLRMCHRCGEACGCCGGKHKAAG

B1: murine zDHHC24, HA-tagged (enzyme, UniProt Q6IR37 1-284)
chain: MGESWAARGAEGAPARMPLVLTALWAAVVVLELAYVMVLGPGPPPLGPLARALQLALAAYQLLNLLGNVVLFLRSDPSIRGVMLAGRGLGQGWAYCYQCQSQVPPRSGHCSACRVCILRRDHHCRLLGCCVGFHNYRPFLCLLLHSAGVLLHISVLLGPALSALLQAHSALYTVALLLLPWLMLLTGKVSLAQFALAFVVDTCVAGALLCGAGLLFHGMLLLRGQTTWEWARGHHCYDLGTCHNLQAALGPRWALVWFWPFLASPLPGDGISFQTPGDVGLVTS
In the case of B1, the binding result in test [1] was “binds”; in test [2], “binds”; in test [3], “no binding”; in test [4], “binds”.
